In article PMC9044575:
No constants are given. Whether binding was seen depends on the method and setting. In cells and extracts the contact can be indirect. Some entries that bind do so weakly or less than the wild type.

T1: Nanog (mouse (endogenous in mouse ES cells)) (UniProt Q80Z64)
T1 sequence: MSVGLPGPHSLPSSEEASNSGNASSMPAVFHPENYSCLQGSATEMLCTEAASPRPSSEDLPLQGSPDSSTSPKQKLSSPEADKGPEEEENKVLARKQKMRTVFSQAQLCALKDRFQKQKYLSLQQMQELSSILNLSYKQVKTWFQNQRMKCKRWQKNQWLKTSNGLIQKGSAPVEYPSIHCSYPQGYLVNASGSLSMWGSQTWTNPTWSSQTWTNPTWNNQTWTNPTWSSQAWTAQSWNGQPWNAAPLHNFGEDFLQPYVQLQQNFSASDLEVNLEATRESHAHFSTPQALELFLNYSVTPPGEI

T2: Developmental pluripotency-associated 3 (mouse (endogenous in mouse ES cells)) (UniProt Q8QZY3)
T2 sequence: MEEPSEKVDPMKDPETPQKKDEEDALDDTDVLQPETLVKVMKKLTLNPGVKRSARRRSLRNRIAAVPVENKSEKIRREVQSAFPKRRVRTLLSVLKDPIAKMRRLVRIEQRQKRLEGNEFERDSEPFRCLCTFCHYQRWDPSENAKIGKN

B1: Developmental pluripotency-associated 3 (protein, UniProt Q8QZY3 1-150)
chain: T2 sequence
B2: Nanog (protein, UniProt Q80Z64 1-305)
chain: T1 sequence

Columns and labels:
[1] = target: T1, Nanog (mouse (endogenous in mouse ES cells)); test: co-IP; mouse ES cells; immunoprecipitation with anti-Nanog antibody and with anti-Dppa3 antibody, blot
[2] = target: T2, Developmental pluripotency-associated 3 (mouse (endogenous in mouse ES cells)); test: as above

Binder	binding [1]	binding [2]
B1	binds	–
B2	–	binds
